In patent CN117257935A:
Residue numbers refer to the chain shown, from its start. No constants are given. Whether binding was seen depends on the method and setting. Some results given as binding are weak or reduced against the parent protein; the word gives no strength.

Chains of the proteins cited; added tags and fusions are not shown. Residues count along the entry.
UniProt Q08722, residues 19-139: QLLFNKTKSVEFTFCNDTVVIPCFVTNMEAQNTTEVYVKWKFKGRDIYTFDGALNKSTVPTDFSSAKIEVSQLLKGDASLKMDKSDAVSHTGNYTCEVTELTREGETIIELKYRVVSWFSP

B1: 7A11H11 (antibody, human IgG4, V domains shown)
VH: QVQLVQPGAEVKKPGASVKLSCKASGSSFTSNWMNWVRQAPGQGLEWIGMIHPSDSETRLNQKFKDRATLTVDKSTSTAYMELSSPRSEDTAVYYCARGTTVVDAFAYWGQGTTVTVSS
VL: DIVMTQSPDSLAVSLGERATMNCKSSQSLLNSRTRKNYLAWYQQKPGQPPKLLIYWASTRESGVPDRFSGSGSGTDFTLTISSLQAEDVAVYYCKQSYNLRTFGGGTKLEIK
B2: 7A11H42 (antibody, human IgG4, V domains shown)
VH: B1 VH with P7S, A16S, L20V, K65Q, D66G, A68V, L70I, V72A, P86L
VL: DIQMTQSPSSLSASVGDRVTMTCKSSQSLLNSRTRKNYLAWYQQKPGKAPKLLIYWASTRESGVPSRFSGSGSGTDFTLTISSLQPEDFATYYCKQSYNLRTFGGGTKLEIK
B3: 7A11H15 (antibody, human IgG4, V domains shown)
VH: B1 VH
VL: EIVMTQSPPTLSLSPGERVTMSCKSSQSLLNSRTRKNYLAWYQQKPGQAPRLLIYWASTRESGIPARFSGSGSGTDFTLTISSLQPEDFAVYYCKQSYNLRTFGGGTKLEIK
B4: 7A11H35 (antibody, human IgG4, V domains shown)
VH: B1 VH with P7S, A16S, L20V, A68V, L70I, V72A, P86L
VL: B3 VL
B5: 7A11H12 (antibody, human IgG4, V domains shown)
VH: B1 VH
VL: B2 VL
B6: 7A11H14 (antibody, human IgG4 S228P, kappa, V domains shown)
VH: B1 VH
VL: DIVMTQSPDSLAVSLGERATMNCKSSQSLLNTRTRKNYLAWYQQKPGQPPKLLIYWASTRESGVPDRFSGSGSGTDFTLTISSLQAEDVAVYYCKQSYNLRTFGGGTKLEIKR
B7: 7A11H33 (antibody, human IgG4, V domains shown)
VH: B1 VH with P7S, A16S, L20V, A68V, L70I, V72A, P86L
VL: B2 VL with S32T
B8: 7A11H22 (antibody, human IgG4, V domains shown)
VH: B1 VH with P7S, L20V, P86L
VL: B2 VL
B9: 7A11H52 (antibody, human IgG4, V domains shown)
VH: QVQLVQSGAEVKKPGSSVKVSCKASGGTFTSNWMNWVRQAPGQGLEWIGMIHPSDSETRLNQKFQGRVTITADKSTSTAYMELSSLRSEDTAVYYCARGTTVVDAFAYWGQGTTVTVSS
VL: B2 VL
B10: 7A11H55 (antibody, human IgG4, V domains shown)
VH: B9 VH
VL: B3 VL
B11: 7A11H32 (antibody, human IgG4, V domains shown)
VH: B9 VH with G27S, T28S, Q65K, G66D
VL: B2 VL
B12: 7A11H34 (antibody, human IgG4, V domains shown)
VH: B9 VH with G27S, T28S, Q65K, G66D
VL: B1 VL with S32T

Each binder was assayed against 人CD47(hCD47) antigen (human) (UniProt Q08722) (assay: BLI (ForteBio)).

| binding | Binder |
| --- | --- |
| binds | B1 |
| binds | B2 |
| binds | B3 |
| binds | B4 |
| binds | B5 |
| binds | B6 |
| binds | B7 |
| binds | B8 |

The binders below were run against 猴CD47 on CHO-cynoCD47 cells (猴 (cyno)) (assay: flow cytometry on CHO-cynoCD47 cells).

| binding | Binder |
| --- | --- |
| binds | B9 |
| binds | B10 |
| binds | B1 |
| binds | B2 |
| binds | B3 |
| binds | B4 |
| binds | B5 |
| binds | B6 |
| binds | B7 |
| binds | B11 |
| binds | B8 |
| binds | B12 |
